Reference: publication doi:10.1101/2021.08.24.457590
Results are given in words; binding and its absence hold for the method and conditions named. In cells and extracts the contact can be indirect. Some entries that bind do so weakly or less than the wild type. Sequences can lack the tags named with a protein. Each block holds one binder with its values, some of them ahead of it.

Tests used:
[1] = target: T1, Myc-tagged human Insig1 (human) (UniProt O15503); test: co-IP
T1 sequence: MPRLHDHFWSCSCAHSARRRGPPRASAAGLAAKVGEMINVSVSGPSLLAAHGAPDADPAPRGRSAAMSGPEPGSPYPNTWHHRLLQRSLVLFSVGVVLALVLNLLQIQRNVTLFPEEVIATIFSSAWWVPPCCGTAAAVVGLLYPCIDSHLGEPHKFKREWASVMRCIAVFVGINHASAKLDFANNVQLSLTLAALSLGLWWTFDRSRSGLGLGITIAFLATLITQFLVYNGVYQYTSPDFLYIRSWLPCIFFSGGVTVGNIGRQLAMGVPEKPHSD

[2] = target: T2, HA-tagged hamster SCAP (hamster) (UniProt P97260); test: co-IP
T2 sequence: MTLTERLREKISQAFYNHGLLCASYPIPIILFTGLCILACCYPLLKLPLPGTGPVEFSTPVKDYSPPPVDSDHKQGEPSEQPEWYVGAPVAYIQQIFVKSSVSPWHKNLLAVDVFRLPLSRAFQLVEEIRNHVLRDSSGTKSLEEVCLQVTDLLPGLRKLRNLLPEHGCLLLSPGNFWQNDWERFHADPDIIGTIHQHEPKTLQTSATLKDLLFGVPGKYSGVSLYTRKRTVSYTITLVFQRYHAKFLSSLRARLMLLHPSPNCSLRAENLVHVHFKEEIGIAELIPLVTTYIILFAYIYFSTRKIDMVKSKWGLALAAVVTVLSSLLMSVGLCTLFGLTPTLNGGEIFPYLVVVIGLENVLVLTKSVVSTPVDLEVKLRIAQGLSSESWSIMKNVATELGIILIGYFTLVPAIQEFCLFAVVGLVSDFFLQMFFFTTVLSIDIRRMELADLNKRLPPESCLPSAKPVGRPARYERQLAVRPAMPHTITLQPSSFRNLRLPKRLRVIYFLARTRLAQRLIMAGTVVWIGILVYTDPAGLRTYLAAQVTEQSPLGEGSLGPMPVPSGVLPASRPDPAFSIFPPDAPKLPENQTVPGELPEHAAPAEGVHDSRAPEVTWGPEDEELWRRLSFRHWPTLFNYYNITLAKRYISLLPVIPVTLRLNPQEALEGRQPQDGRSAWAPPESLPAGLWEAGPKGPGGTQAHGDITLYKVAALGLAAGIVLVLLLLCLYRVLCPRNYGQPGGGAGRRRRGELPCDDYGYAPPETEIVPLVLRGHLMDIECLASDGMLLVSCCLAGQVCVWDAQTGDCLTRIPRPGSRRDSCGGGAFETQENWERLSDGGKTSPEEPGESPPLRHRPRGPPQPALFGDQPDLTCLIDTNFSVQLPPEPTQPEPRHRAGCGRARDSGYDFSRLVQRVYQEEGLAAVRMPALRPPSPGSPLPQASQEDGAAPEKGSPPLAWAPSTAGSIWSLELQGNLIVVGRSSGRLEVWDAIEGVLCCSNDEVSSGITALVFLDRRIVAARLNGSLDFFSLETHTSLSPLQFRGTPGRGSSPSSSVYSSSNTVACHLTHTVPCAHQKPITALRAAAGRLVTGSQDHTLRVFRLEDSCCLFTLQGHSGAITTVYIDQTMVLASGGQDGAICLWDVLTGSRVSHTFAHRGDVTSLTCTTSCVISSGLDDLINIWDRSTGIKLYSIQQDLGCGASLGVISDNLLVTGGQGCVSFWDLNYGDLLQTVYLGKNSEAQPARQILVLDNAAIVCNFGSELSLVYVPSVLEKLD

binding [1]: binds
binding [2]: binds
B1: V5-tagged human RHBDL4 (enzyme, UniProt Q8TEB9-1 1-315)
chain: MQRRSRGINTGLILLLSQIFHVGINNIPPVTLATLALNIWFFLNPQKPLYSSCLSVEKCYQQKDWQRLLLSPLHHADDWHLYFNMASMLWKGINLERRLGSRWFAYVITAFSVLTGVVYLLLQFAVAEFMDEPDFKRSCAVGFSGVLFALKVLNNHYCPGGFVNILGFPVPNRFACWVELVAIHLFSPGTSFAGHLAGILVGLMYTQGPLKKIMEACAGGFSSSVGYPGRQYYFNSSGSSGYQDYYPHGRPDHYEEAPRNYDTYTAGLSEEEQLERALQASLWDRGNTRNSPPPYGFHLSPEEMRRQRLHRFDSQ

binding [2]: binds
B2: Myc-tagged human Insig1 (protein, UniProt O15503-1 1-277)
chain: T1 sequence
